Results as given in publication PMC10673876.
Results are given in words; binding and its absence hold for the method and conditions named. In cells and extracts the contact can be indirect. Some binding calls cover weakened binding; strength is not graded here.

Protein sequences, listed by entry. Tags and fused reporters are not part of them.
UniProt P35579: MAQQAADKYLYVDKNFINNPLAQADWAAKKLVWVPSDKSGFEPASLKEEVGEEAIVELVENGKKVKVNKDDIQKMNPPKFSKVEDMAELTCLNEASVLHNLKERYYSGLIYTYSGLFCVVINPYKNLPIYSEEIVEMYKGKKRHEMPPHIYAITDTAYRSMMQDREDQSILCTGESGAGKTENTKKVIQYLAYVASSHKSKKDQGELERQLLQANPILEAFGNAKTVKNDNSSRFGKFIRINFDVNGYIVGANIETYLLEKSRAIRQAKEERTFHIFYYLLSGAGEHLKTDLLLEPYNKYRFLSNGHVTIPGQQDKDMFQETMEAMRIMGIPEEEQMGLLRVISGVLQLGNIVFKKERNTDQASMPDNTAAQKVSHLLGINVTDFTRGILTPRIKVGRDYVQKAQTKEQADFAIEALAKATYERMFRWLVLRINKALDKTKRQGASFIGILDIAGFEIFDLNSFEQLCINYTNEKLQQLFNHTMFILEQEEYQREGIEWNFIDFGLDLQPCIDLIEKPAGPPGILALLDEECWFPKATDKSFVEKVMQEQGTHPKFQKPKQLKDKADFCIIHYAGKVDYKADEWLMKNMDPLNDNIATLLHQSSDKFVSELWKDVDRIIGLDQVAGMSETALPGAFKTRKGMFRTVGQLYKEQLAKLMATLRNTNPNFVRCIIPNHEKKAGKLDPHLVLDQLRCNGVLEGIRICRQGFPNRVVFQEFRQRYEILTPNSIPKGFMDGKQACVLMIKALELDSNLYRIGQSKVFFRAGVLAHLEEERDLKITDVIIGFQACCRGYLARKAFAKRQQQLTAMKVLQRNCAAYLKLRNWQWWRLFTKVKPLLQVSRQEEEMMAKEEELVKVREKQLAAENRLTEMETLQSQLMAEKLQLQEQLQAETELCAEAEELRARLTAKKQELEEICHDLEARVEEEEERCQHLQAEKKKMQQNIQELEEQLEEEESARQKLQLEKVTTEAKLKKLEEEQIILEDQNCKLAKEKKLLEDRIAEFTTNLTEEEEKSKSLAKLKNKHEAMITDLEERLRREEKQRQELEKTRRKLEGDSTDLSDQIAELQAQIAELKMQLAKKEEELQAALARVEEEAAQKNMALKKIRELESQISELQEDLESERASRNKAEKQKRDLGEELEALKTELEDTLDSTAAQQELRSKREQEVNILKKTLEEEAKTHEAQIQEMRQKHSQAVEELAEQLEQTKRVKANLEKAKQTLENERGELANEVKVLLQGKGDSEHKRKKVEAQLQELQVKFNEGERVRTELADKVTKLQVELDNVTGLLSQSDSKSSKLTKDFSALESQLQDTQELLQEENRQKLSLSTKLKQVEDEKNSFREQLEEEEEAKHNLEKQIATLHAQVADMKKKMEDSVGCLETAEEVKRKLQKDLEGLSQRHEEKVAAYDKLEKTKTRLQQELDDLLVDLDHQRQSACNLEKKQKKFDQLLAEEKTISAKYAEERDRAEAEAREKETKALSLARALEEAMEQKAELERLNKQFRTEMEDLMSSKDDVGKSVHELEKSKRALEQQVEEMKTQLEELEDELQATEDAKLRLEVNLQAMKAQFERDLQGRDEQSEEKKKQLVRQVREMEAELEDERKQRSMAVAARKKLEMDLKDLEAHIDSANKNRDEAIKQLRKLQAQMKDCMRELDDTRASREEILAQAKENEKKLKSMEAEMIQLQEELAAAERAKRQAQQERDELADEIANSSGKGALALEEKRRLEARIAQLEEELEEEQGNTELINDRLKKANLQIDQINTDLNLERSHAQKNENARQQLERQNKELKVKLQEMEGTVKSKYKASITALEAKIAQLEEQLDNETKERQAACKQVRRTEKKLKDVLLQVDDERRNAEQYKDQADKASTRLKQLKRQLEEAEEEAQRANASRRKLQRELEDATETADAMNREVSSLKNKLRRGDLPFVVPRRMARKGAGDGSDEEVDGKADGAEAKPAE
UniProt O75528: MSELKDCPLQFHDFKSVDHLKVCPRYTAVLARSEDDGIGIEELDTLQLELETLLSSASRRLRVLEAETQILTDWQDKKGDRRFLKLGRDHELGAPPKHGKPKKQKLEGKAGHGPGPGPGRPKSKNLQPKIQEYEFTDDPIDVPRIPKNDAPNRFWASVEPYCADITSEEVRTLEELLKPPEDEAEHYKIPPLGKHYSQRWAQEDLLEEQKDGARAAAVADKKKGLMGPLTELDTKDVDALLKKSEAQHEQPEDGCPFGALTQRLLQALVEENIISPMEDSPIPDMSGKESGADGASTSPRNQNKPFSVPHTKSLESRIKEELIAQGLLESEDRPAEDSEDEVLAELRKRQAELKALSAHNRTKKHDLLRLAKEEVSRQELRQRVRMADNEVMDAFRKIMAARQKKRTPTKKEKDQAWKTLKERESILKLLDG

Experiments:
[1] = biological target: T1, Emerin (human (endogenous in K562)) (UniProt P50402); experiment: co-IP; K562 cells with or without glucose for 48 h; RIPA lysate (1.5 mg) incubated with Emerin or TAF9B antibody overnight at 4 °C, Protein A/G magnetic beads, washed with PBS; immunoblotting
T1 sequence: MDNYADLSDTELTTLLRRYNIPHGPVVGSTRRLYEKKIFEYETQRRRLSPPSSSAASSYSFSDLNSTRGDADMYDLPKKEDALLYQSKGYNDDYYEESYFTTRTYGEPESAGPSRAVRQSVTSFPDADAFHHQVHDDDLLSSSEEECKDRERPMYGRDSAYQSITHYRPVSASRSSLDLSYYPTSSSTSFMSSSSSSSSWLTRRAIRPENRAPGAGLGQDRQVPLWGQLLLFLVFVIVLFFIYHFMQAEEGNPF

[2] = biological target: TAF9B (human (endogenous in K562)) (UniProt Q9HBM6); experiment: as above

Substance | binding [1] | binding [2]
MYH9 (from UniProt P35579 1-1960) | binds | 
TADA3L (from UniProt O75528 1-432) |  | binds
